No constants are given. Whether binding was seen depends on the method and setting. Binding seen in cells or lysates may run through a third protein. Binding can be weak; no strength is given. Where a sequence is shown, tags or fusion partners need not be part of it.
Tests used:
Assay in all cases: co-IP; exogenous Co-IP: Flag-tagged AIF co-expressed with an HA-tagged partner (AIF, CHCHD4 or MIF) in AIF-null cells; Flag beads overnight at 4 °C, washed three times, SDS-PAGE
[1] = biological target: Flag-tagged AIF p.423-435del variant (human) (UniProt O95831)
[2] = biological target: Flag-tagged wild-type apoptosis-inducing factor (AIF) (human) (UniProt O95831)
[3] = biological target: Flag-tagged AIF p.R422Q variant (human) (UniProt O95831)

Sequences of proteins named here, by UniProt entry; tags and fusion partners are left off. A change or cut given only in a name is not applied to a line headed by its entry.
UniProt O95831: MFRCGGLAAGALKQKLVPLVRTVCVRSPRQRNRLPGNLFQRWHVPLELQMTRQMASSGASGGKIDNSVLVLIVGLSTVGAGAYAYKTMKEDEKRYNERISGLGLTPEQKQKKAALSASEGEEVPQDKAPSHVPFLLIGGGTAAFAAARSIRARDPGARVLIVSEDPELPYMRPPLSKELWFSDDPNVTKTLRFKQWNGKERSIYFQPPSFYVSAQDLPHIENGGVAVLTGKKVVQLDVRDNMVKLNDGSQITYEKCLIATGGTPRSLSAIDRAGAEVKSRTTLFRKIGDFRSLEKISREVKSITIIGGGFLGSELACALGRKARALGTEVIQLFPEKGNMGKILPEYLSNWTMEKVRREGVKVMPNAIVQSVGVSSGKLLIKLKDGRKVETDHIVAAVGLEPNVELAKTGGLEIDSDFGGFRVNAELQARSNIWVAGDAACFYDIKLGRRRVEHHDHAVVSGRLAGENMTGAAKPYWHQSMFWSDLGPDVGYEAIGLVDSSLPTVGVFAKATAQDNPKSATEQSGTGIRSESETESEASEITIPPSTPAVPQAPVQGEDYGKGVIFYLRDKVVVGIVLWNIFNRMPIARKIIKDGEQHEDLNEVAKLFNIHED

Measured: binding

B1: HA-tagged coiled-coil-helix-coiled-coil-helix domain-containing protein 4 (CHCHD4) (protein, UniProt Q8N4Q1 1-142)
chain: MSYCRQEGKDRIIFVTKEDHETPSSAELVADDPNDPYEEHGLILPNGNINWNCPCLGGMASGPCGEQFKSAFSCFHYSTEEIKGSDCVDQFRAMQECMQKYPDLYPQEDEDEEEEREKKPAEQAEETAPIEATATKEEEGSS
binds: all assays above
